Values joined by “and” are separate entries in the source; they are usually repeats but may differ in a detail not shown here. Equal entries are not always repeated.
System: Staphylococcus aureus
Experiment: Antibacterial activity against Staphylococcus aureus ATCC 25923 assessed as inhibition of bacterial growth
Assay type: functional
Outline: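 Strains grown in ATCC-recommended media in culture tubes at 37 °C with shaking at 225 rpm for 3–8 h, back-diluted to about 10^6 cfu/mL, and incubated in triplicate in 384-well plates with a dilution series of test agent. DMSO vehicle served as negative control; linezolid (E. faecium) and ampicillin (S. aureus) were positive controls. MIC recorded.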

## CC1(C)S[C@@H]2[C@H](NC(=O)[C@H](N)c3ccccc3)C(=O)N2[C@H]1C(=O)O [AMPICILLIN]
  MIC: 0.5 µg/mL and 1.4 µM
